The source of these data is paper PMC12366525, “Characterization of allosteric modulators that disrupt androgen receptor co-activator protein-protein interactions to alter transactivation–Drug leads for metastatic castration resistant prostate cancer” (SLAS discovery : advancing life sciences R & D, 2023).

In this test the target is His6-AR-LBD (pET28a-AR-LBD (622–919)). Description: AlphaScreen or HTRF; 150 nM biotinylated TIF2-box III peptide on streptavidin donor beads; His6-AR-LBD (400 ng/well) with 10 uM DHT on nickel chelate acceptor beads; 1 h at room temperature in the dark; 500-fold excess of unlabeled peptide (75 uM) as minimum control; both purified. For orientation: Alpha assays give light when donor and acceptor beads are brought close together.

Results are given in words; binding and its absence hold for the method and conditions named. Binding can be weak; no strength is given.

B1: Biotinylated TIF2-box-III (738–756) peptide (peptide)
peptide: CKKKENALLRYLLDKDDTKD
modifications: biotin on the N-terminus (Biotin-HN-); C-terminal amide (-CONH2)
In the case of B1, the binding result is on record as “binds”.
